Source: PubChem BioAssay AID2685 (National Center for Advancing Translational Sciences (NCATS), 2010)
The campaign covered roughly 320,000 compounds. About 2,100 (0.66%) were called active. The shares of active, inactive and inconclusive entries below differ from those in the screen. The call rests on the fitted dose curve; in most records, active means well fitted inhibition curve with a large enough effect in the signal ratio, with a control signal flat (not every such curve was filed as active); inconclusive means small, poorly fitted or top-dose-only effect, or effect the other way, or a change in a side signal; inactive means flat fitted curve, though single readings scatter; the % refers to the signal ratio. Potencies beside an inconclusive call are fits to weak or partial responses and may not hold up.
On the % scale 0 is the no-effect control and ±100 the full control effect; potency means the concentration at half of the fitted maximal effect.

Assay: qHTS Assay for Lipid Storage Modulators in Drosophila S3 Cells
Conditions: BODIPY lipid droplet fluorescence, 18-24 h, cells fed with added oleic acid; lipid storage change, negative = inhibition: at 46.1 µM (top of the series) unless noted
In short: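 Laser-scanning cytometry quantifies lipid droplet accumulation (500–530 nm total intensity; droplet/cell object ratio) in oleic acid-fed (400 uM added) Drosophila S3 cells treated with a concentration series. 20 uM Triacsin C defined 100% inhibition.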
With `O=C(CSc1nnc(-c2ccc(Cl)cc2)n1Cc1ccco1)Nc1ccc2c(c1)OCCO2` the lipid storage change, negative = inhibition was inconclusive: 10.2%. In the case of `CCCCn1nnnc1NCc1cc(OC)c(OC)c(OC)c1`, the Potency was inconclusive: 164 nM [falling, full curve, poor fit]. In the case of `O=C(CSc1ncn[nH]1)NCCc1ccc(Cl)cc1`, the Potency was inconclusive: 164 nM [activator, full curve]. For `Cn1c(=O)c2c(ncn2CC(=O)OCC(=O)Nc2cc(Cl)ccc2Cl)n(C)c1=O`, the lipid storage change, negative = inhibition was inconclusive: 0.0703%. In the case of `COC(=O)c1ccc(C(=O)OC)c(NC(=O)C(C)(C)C)c1`, the lipid storage change, negative = inhibition was inconclusive: 54.1%. For `Cc1cccc(CN2CCN(CC(=O)N3CCCC3)C2=O)c1`, the lipid storage change, negative = inhibition was inconclusive: -15.3%. For `Cc1ccc(C(C)C)cc1NC(=O)Nc1ccc([N+](=O)[O-])cc1`, the Potency was inconclusive: 16400 nM [cytotoxic, partial curve]. For `CN(C1CCCCC1)S(=O)(=O)c1ccc(NC(=O)c2ccc(Br)o2)cc1`, the lipid storage change, negative = inhibition was inconclusive: 10.1%. With `COc1cccc(CNC(=O)CCc2nnc3ccc(NCCCN4CCCC4=O)nn23)c1` the lipid storage change, negative = inhibition was inconclusive: -24.4%. In the case of `O=C(CCN1C(=O)[C@@H]2Cc3ccccc3CN2C1=O)Nc1cccc(F)c1`, the Potency was inconclusive: 18400 nM [activator, partial curve]. With `CCOC(=O)Cn1nc(-c2ccccc2)c2cnc3ccc(CC)cc3c21` the lipid storage change, negative = inhibition was inconclusive: -17.2%. With `COC(=O)c1c(NC(=O)c2ccco2)sc2c1CCN(C(C)C)C2` the Potency was inconclusive: 2060 nM [falling, partial curve, poor fit]. With `COc1ccc(N2CCN(S(=O)(=O)c3ccc(OC)c(C(=O)N4CCCCC4)c3)CC2)cc1` the Potency was inconclusive: 1640 nM [falling, partial curve, poor fit]. With `COc1cccc(NC(=O)CC2C(=O)NCCN2C(=S)Nc2ccc(F)cc2)c1` (stereo not drawn) the lipid storage change, negative = inhibition was inconclusive: -15%. In the case of `COc1ccc(CNC(=O)C(c2ccncc2)N(C(=O)Cc2cccs2)c2ccccc2)cc1` (stereo not drawn), the lipid storage change, negative = inhibition was inconclusive: -2.5%. In the case of `CN(C)S(=O)(=O)c1cccc(CSCc2cccc(S(=O)(=O)N(C)C)c2)c1`, the lipid storage change, negative = inhibition was inconclusive: -1.04%. With `COCCNC(=O)/C(C#N)=C\c1ccc(CNS(=O)(=O)c2ccccc2)o1` the Potency was inconclusive: 14600 nM [falling, partial curve]. With `O=C(CCC(=O)N1CCCC1)Nc1ccc(Cl)c(Cl)c1` the lipid storage change, negative = inhibition was inconclusive: -56%. With `COc1ccc2c(c1OC)CN1CCc3cc4c(cc3[C@@H]1[C@@H]2O)OCO4` the lipid storage change, negative = inhibition was inconclusive: -4.51%. For `CCc1nc(SCC(=O)NCc2ccco2)c2c(=O)n(C)c(=O)n(C)c2n1`, the “outcome” value was “inactive [at 46.1 µM]”. For `COc1cc(/C=C2\SC(=S)N(CC(=O)Nc3ccc(O)cc3)C2=O)cc(OC)c1OC`, the “lipid storage change, negative = inhibition” value was inactive: 12.1%. In the case of `Cc1nc2ccccc2cc1C(=O)N/N=C/c1ccco1`, the lipid storage change, negative = inhibition was inconclusive: 39.2%. With `CCOC(=O)NC(NC(=S)Nc1ccc(OCC)cc1)C(Cl)(Cl)Cl` (stereo not drawn) the Potency was inconclusive: 130 nM [falling, full curve]. With `COc1ccc(-c2cc(C(=O)Nc3c(C)n(C)n(-c4ccccc4)c3=O)no2)cc1` the lipid storage change, negative = inhibition was inconclusive: 3.65%. For `COc1cccc(Oc2cn[nH]c2-c2ccc(OCC(=O)NN)cc2O)c1`, the “lipid storage change, negative = inhibition” value was inactive: 18.3%. In the case of `COc1ccccc1-c1nnc2sc(COc3ccccc3)nn12`, the Potency was inconclusive: 5.8 nM [activator, full curve, poor fit]. In the case of `Cc1ccc(NCC(=O)c2ccc([N+](=O)[O-])cc2)cc1`, the lipid storage change, negative = inhibition was inconclusive: -26.6%. In the case of `CC(=O)Nc1ccc(NC(=O)COC(=O)c2ccccc2SCC(=O)N2CCCC2)cc1`, the lipid storage change, negative = inhibition was “inconclusive”. For `O=C(CSc1ccc2nnc(CCNC(=O)c3ccccc3)n2n1)NC1CCCC1`, the lipid storage change, negative = inhibition was inconclusive: -64.9%. With `CN(CC(=O)Nc1ccc(F)cc1)C(=O)COC(=O)c1cccc(N(C)C)c1` the lipid storage change, negative = inhibition was inconclusive: 2.37%. For `CN1CCN(NC(=O)c2ccc(S(=O)(=O)N3CCCCCC3)cc2)CC1`, the Potency was inconclusive: 920 nM [falling, full curve, poor fit]. In the case of `O=C(N/N=C1/CC2C=CCC12)c1cccs1` (stereo not drawn), the Potency was inconclusive: 103 nM [activator, full curve, poor fit]. For `O=c1n(-c2ccccc2)c(=O)n(Cc2ccccn2)n1Cc1ccccn1`, the Potency was inconclusive: 231 nM [cytotoxic, full curve]. In the case of `CC1CCCC(C)N1C(=O)COC(=O)CNC(=O)c1ccccc1` (stereo not drawn), the lipid storage change, negative = inhibition was inconclusive: -42.4%. In the case of `CCn1c(O)c(N=NC(=O)CNC(=O)Cc2ccccc2)c2ccccc21`, the lipid storage change, negative = inhibition was inconclusive: -54.4%. In the case of `C=CCN(CC=C)Cc1c(O)ccc2c(=O)c(-c3ccccc3)coc12`, the Potency was inconclusive: 4610 nM [falling, single point]. For `O=C(Cc1ccccc1)Nc1ccccc1C(=O)Nc1ccccc1`, the lipid storage change, negative = inhibition was inconclusive: 159%. For `O=C(CN(C(=O)CCC(=O)Nc1nccs1)c1ccc(F)cc1)NCc1ccco1`, the lipid storage change, negative = inhibition was inconclusive: 27.9%. In the case of `O=C(O)c1ccc(N=NNc2cccc([N+](=O)[O-])c2)cc1`, the lipid storage change, negative = inhibition was inconclusive: -33.5%. For `Cc1ccc(OCCC(=O)OCC(=O)c2c(N)n(CC(C)C)c(=O)n(C)c2=O)cc1`, the Potency was inconclusive: 20600 nM [falling, single point]. With `O=C(Nc1cccc(-c2cnc3ccccc3n2)c1)c1ccco1` the lipid storage change, negative = inhibition was inconclusive: -62.4%. With `CCCCOc1ccc(S(=O)(=O)N2CCCCC2)cc1` the lipid storage change, negative = inhibition was inconclusive: -18.7%. For `O=C(CCc1nc(-c2ccccc2Cl)no1)Nc1cccnc1`, the Potency was inconclusive: 29100 nM [falling, single point]. For `COc1cc(-c2nc(CN3CCN(c4ncccn4)CC3)c(C)o2)ccc1F`, the lipid storage change, negative = inhibition was inconclusive: 10.1%. For `Cc1c(CCC(=O)NCCCN2CCCC2=O)c(=O)oc2cc(O)ccc12`, the Potency was inconclusive: 7310 nM [activator, partial curve, poor fit]. With `Cc1ccc2nc(SCC(=O)N3CCC(Cc4ccccc4)CC3)nc(=O)n2c1` the Potency was inconclusive: 1640 nM [activator, partial curve, poor fit]. With `Cc1ccccc1Cn1cnc2ccccc2c1=O` the lipid storage change, negative = inhibition was inconclusive: 14.3%. For `COCc1ccc(C(=O)N2CCCC(C(=O)c3ccc(SC)cc3)C2)s1` (stereo not drawn), the Potency was inconclusive: 29100 nM [falling, single point].
